Measurements taken from the supplement of paper PMC10849652.
Some of the results follow.

Amino acid sequences for entries named in this document (tags omitted). A change or cut given only in a name is not applied to a line headed by its entry.
UniProt Q8N5Y8: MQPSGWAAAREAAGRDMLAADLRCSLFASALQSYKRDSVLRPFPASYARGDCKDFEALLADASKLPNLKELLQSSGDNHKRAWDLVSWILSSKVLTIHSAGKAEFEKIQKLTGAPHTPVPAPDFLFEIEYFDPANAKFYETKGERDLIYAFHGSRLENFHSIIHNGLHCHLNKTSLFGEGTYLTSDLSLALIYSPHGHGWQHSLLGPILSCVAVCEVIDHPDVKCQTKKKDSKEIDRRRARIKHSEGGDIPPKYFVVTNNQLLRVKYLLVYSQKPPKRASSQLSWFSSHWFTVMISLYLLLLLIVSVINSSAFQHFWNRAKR
UniProt Q7Z2X7: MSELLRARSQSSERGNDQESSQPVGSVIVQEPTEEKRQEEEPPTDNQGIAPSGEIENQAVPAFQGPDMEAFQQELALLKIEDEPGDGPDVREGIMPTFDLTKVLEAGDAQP
UniProt H7BZJ3: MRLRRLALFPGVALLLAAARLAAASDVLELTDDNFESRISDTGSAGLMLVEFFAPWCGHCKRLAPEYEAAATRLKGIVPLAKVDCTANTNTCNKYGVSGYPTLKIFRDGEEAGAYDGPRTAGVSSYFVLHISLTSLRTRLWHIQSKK
UniProt O43924: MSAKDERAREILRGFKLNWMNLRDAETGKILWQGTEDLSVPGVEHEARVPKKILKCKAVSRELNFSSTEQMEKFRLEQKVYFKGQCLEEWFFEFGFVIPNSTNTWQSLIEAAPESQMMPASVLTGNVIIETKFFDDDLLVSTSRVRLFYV
UniProt Q13310, whole entry, looked up: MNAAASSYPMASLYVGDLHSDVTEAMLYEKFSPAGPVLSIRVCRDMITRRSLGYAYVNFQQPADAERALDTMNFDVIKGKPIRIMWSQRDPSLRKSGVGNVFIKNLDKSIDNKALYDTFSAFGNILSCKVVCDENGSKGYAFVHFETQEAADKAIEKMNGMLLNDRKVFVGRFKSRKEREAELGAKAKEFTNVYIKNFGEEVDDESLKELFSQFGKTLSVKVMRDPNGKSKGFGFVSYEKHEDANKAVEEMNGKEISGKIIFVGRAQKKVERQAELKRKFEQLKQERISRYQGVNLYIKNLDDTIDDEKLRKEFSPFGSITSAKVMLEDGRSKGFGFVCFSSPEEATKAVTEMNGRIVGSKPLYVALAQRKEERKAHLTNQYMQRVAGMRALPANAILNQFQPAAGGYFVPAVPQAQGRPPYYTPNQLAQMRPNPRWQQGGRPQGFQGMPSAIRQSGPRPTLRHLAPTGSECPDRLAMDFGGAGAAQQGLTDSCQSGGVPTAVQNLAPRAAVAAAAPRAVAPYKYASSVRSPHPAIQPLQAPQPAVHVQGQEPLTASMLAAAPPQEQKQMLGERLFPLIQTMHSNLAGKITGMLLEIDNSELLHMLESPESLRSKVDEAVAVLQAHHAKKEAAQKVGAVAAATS
UniProt Q5JVF3: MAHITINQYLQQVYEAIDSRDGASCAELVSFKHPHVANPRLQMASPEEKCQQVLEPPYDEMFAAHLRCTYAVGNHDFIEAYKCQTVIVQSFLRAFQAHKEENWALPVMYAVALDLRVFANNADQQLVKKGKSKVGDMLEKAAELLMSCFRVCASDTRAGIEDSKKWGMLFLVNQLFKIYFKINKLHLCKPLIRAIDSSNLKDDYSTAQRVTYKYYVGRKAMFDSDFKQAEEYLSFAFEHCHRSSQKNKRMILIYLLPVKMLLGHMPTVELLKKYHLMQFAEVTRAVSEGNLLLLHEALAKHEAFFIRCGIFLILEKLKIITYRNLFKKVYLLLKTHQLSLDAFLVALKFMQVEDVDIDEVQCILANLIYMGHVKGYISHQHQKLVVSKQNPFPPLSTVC
UniProt Q9UBM1: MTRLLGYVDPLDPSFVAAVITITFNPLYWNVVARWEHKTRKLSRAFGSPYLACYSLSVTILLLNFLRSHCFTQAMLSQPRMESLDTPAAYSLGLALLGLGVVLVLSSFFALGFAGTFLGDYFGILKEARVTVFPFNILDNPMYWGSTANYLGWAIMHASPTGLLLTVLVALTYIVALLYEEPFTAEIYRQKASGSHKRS
UniProt Q86W56: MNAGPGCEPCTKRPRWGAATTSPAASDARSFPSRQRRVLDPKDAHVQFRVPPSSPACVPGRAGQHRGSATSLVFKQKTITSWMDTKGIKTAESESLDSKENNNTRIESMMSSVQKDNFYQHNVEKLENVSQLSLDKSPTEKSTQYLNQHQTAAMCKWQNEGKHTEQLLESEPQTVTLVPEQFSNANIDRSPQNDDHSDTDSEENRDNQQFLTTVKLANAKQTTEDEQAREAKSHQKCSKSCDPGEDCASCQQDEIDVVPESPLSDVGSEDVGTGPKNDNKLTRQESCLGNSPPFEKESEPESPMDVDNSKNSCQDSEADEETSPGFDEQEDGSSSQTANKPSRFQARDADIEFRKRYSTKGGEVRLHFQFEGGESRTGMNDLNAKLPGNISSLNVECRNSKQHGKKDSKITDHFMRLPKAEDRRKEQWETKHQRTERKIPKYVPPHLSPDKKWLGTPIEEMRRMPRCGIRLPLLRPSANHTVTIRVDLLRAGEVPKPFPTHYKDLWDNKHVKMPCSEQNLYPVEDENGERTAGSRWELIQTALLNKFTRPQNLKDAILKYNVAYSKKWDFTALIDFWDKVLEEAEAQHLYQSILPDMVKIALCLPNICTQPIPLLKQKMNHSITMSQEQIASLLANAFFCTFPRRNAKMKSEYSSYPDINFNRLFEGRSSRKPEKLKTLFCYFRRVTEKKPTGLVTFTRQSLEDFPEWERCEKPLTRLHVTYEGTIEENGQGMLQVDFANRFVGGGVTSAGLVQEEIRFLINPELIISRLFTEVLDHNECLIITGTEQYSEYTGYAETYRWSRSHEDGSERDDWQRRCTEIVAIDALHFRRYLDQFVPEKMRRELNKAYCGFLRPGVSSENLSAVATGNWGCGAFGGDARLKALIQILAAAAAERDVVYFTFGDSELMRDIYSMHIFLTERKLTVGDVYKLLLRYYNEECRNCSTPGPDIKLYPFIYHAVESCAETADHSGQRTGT
UniProt O75781: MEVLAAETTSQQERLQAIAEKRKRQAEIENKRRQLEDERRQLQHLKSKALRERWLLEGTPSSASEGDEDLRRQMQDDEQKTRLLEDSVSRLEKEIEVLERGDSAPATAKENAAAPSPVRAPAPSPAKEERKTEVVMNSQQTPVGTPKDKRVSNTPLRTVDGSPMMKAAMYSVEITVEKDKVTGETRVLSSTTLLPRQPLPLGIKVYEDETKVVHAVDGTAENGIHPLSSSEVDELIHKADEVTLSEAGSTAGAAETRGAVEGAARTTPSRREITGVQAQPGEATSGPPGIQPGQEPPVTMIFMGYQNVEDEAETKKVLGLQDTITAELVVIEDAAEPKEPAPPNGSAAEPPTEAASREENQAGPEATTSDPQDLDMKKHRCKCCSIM
UniProt Q5EBL8: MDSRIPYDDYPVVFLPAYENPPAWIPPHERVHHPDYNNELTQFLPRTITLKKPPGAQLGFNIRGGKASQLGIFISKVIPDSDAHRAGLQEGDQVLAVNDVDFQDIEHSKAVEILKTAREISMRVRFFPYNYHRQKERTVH
UniProt Q9H074: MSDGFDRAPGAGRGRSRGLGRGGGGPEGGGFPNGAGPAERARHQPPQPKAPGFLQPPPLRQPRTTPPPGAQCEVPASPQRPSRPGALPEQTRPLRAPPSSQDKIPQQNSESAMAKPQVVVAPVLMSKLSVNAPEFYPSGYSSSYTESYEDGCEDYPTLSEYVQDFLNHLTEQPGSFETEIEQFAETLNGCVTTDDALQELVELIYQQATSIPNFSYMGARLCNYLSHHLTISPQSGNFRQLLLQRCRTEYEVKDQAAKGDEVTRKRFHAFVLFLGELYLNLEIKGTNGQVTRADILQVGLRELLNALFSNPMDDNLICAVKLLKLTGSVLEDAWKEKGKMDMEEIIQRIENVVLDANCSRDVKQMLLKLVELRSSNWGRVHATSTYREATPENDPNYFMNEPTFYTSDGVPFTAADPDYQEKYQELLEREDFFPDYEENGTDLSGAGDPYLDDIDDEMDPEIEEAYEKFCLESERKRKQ
UniProt P29122: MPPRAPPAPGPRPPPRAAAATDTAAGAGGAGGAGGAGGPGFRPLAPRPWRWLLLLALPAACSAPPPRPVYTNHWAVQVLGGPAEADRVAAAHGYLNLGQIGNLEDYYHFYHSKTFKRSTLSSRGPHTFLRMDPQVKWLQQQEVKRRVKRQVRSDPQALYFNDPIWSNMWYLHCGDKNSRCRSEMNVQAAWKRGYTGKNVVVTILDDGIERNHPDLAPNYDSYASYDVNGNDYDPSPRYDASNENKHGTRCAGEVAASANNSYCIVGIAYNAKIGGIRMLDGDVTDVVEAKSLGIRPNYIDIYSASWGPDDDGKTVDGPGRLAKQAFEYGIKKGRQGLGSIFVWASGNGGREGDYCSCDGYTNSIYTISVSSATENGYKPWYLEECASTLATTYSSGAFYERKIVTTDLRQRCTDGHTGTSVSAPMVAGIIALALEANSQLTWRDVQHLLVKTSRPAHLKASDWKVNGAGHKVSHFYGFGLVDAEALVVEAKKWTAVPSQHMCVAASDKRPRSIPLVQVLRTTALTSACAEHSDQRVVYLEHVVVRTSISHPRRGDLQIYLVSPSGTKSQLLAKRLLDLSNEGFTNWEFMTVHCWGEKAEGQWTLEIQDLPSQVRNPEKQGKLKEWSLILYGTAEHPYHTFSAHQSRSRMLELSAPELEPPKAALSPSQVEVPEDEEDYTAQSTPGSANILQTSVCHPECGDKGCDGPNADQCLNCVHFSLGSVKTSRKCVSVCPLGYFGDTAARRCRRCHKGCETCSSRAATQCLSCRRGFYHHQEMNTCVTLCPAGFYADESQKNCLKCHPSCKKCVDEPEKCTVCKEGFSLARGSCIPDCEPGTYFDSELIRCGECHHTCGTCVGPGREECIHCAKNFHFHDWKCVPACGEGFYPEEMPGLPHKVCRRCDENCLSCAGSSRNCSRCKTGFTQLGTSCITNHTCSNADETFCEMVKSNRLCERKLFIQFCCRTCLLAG
UniProt Q13370: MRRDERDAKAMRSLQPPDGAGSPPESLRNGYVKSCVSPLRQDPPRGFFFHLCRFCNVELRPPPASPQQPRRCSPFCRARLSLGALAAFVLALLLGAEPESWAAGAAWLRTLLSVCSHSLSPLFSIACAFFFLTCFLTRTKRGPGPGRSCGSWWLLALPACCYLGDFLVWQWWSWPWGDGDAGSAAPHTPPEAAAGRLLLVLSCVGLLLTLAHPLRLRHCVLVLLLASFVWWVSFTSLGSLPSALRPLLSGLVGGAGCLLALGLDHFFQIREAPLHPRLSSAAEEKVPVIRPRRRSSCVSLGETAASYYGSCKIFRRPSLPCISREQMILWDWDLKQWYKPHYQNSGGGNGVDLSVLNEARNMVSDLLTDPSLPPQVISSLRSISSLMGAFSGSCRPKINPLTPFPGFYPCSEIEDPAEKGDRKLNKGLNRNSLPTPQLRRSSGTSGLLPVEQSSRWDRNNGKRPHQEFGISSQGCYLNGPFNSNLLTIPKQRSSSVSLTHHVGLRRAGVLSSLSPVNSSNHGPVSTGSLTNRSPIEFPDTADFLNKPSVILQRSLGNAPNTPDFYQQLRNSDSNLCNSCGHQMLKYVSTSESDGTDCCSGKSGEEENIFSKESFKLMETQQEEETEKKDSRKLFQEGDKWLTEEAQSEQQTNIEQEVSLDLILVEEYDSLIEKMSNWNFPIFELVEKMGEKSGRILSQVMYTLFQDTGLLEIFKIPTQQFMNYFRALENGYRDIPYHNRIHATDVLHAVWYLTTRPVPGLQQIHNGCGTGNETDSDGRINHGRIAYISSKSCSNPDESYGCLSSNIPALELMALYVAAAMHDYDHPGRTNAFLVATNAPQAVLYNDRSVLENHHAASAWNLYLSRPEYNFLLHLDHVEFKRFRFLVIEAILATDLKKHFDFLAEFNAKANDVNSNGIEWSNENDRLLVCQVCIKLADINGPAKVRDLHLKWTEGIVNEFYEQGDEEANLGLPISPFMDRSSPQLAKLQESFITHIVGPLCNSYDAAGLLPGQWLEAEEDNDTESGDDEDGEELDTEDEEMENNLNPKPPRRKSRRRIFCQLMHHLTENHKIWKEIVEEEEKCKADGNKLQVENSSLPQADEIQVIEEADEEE
UniProt Q86SE9: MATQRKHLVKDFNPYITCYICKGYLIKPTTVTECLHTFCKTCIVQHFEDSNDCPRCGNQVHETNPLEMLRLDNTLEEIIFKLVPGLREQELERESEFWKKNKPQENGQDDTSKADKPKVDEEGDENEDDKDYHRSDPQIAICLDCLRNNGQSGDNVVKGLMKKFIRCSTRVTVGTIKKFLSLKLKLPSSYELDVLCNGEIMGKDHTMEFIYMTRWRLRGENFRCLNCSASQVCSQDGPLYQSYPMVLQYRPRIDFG

Compound: C#Cc1cccc(Nc2ncnc3cc(OCCOC)c(OCCOC)cc23)c1 [erlotinib]
Experiment: log2 fold change, soluble protein after heating vs DMSO (PISA); higher = thermal stabilisation; K562 cells, 10 uM, 30 min; active = over 0.2 and 3.5 SD of the protein, either way, in both replicates (recomputed)
How it was run: (§1)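 K562 cells (2×10^6 cells/mL) were treated with 10 μM compound for 30 min, and aliquots were heated for 3 min over 48°C-58°C. Pooled aliquots were extracted in PBS with 0.5% NP-40 at 4°C, and the supernatant after 21,000xg for 90 min was measured by TMTpro 16plex LC-MS/MS with channel sums equalised. Reported thermal stability, relative to control samples and from duplicates, is a log2 fold change.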

log2 fold change, inactive:
PARP16 isoform 3 (UniProt Q8N5Y8) 0.025
PAGE2 (UniProt Q7Z2X7) -0.045
PAFAH2 (UniProt Q99487) -0.004
PAXBP1 (UniProt Q9Y5B6) 0.086
PDIA3 (UniProt H7BZJ3) -0.071
PDE6D (UniProt O43924) -0.094
PCBP2 (UniProt F8VZX2) -0.014
PDE4DIP (UniProt E9PS60) 0.086
PCNX3 (UniProt Q9H6A9) -0.096
PACSIN3 (UniProt Q9UKS6) -0.085
PABPC4 isoform 3 (UniProt Q13310) -0.086
PCID2 (UniProt Q5JVF3) 0.086
PEMT isoform 2 (UniProt Q9UBM1) -0.087
PCSK7 (UniProt Q16549) -0.082
PARG (UniProt Q86W56) 0.063
PALM (UniProt O75781) 0.067
PCBP2 (UniProt F8VRH0) -0.011
PDZD11 isoform 2 (UniProt Q5EBL8) 0.083
PAIP1 (UniProt Q9H074) -0.047

Compound: C/C(=N\NC(=O)C1=CC(=CC=C1)S(=O)(=O)N2CCOCC2)/C3=C(C=CC(=C3)Cl)O
Experiment: as above
How it was run: as §1

log2 fold change, inactive:
PAICS (UniProt D6RF62) -0.408
PARP16 isoform 3 (UniProt Q8N5Y8) 0.049
PAGE2 (UniProt Q7Z2X7) -0.133
PAFAH2 (UniProt Q99487) 0.138
PDIA3 (UniProt H7BZJ3) -0.145
PDE6D (UniProt O43924) 0.055
PABPC4 isoform 3 (UniProt Q13310) 0.015
PAFAH1B1 (UniProt I3L3N5) -0.19
PCSK6 isoform 7 (UniProt P29122) -0.227
PDIA4, A0A499FI48 0.128
PARG (UniProt Q86W56) 0.067
PACC1 (UniProt Q9H813) 0.039
PCBP2 (UniProt F8VRH0) 0.07
PCF11 (UniProt O94913) 0.04
PAIP1 (UniProt Q9H074) 0.043
PDE6C (UniProt P51160) 0.088
PEX10 isoform 2 (UniProt O60683) -0.048

Compound: C1=CC(=C(C=C1Cl)C2=NC3=NC=CN=C3C(=N2)NC4=CC=NC=C4)F
Experiment: as above
How it was run: as §1

log2 fold change, inactive:
PARP16 isoform 3 (UniProt Q8N5Y8) -0.055
PAGE2 (UniProt Q7Z2X7) 0.132
PAF1 (UniProt Q8N7H5) -0.054
PDIA3 (UniProt H7BZJ3) -0.076
PDE6D (UniProt O43924) -0.082
PDXP (UniProt B1AHD3) 0.129
PDE3B (UniProt Q13370) -0.088
PACSIN3 (UniProt Q9UKS6) -0.052
PABPC4 isoform 3 (UniProt Q13310) -0.118
PCID2 (UniProt Q5JVF3) -0.088
PDCD2 (UniProt Q16342) -0.135
PARG (UniProt Q86W56) 0.034
PACC1 (UniProt Q9H813) 0.121
PCBP2 (UniProt F8VRH0) 0.016
PCNX1 (UniProt Q96RV3) 0.036
PCGF5 (UniProt Q86SE9) -0.037
PDZD11 isoform 2 (UniProt Q5EBL8) 0.021
PAIP1 (UniProt Q9H074) 0.012
PCMTD1 (UniProt Q96MG8) -0.14

Compound: C1=CC(=CC=C1C2=NC3=C(N2)C=C(C=C3)C(=O)N)OC4=CC=C(C=C4)Cl
Experiment: as above
How it was run: as §1

log2 fold change, inactive:
PARP16 isoform 3 (UniProt Q8N5Y8) -0.018
PAGE2 (UniProt Q7Z2X7) 0.148
PAFAH2 (UniProt Q99487) -0.018
PAXBP1 (UniProt Q9Y5B6) -0.047
PDIA3 (UniProt H7BZJ3) -0.054
PDE6D (UniProt O43924) -0.102
PCBP2 (UniProt F8VZX2) -0.077
PDE4DIP (UniProt E9PS60) -0.175
PCNX3 (UniProt Q9H6A9) -0.222
PACSIN3 (UniProt Q9UKS6) -0.063
PABPC4 isoform 3 (UniProt Q13310) 0.069
PCID2 (UniProt Q5JVF3) -0.021
PEMT isoform 2 (UniProt Q9UBM1) 0.021
PCSK7 (UniProt Q16549) -0.044
PARG (UniProt Q86W56) -0.015
PALM (UniProt O75781) 0.079
PCBP2 (UniProt F8VRH0) -0.099
PDZD11 isoform 2 (UniProt Q5EBL8) -0.005
PAIP1 (UniProt Q9H074) 0.054
